In paper PMC6918085 one finds binding data, which are given here for one molecule.

Chains of the proteins cited; added tags and fusions are not shown. Residues count along the entry.
UniProt P71451, residues 35-297: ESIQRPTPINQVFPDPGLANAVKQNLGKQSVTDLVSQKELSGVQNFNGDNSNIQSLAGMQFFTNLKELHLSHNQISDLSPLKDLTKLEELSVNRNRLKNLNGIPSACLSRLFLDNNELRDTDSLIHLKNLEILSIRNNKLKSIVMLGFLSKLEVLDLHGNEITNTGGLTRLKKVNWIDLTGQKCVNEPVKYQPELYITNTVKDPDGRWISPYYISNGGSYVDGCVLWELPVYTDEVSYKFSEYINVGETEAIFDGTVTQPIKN

Results are given in words; binding and its absence hold for the method and conditions named. Binding seen in cells or lysates may run through a third protein. A yes stands for co-enrichment or nearness to the bait. Other partners may have been found.

This experiment deals with InlC secreted by L. monocytogenes EGD in infected HeLa cells (Listeria monocytogenes EGD) (UniProt P71451). Kind of experiment: affinity purification with mass spectrometry; anti-InlC antibodies and protein A-Sepharose on extracts (modified RIPA buffer) of HeLa cells infected for 24 h with Listeria expressing native InlC, InlC-K^all or InlC-K^224; immunoprecipitates analysed by LC-MS/MS.

B1: S100A9 in HeLa cell extracts (protein, UniProt P06702 1-114)
chain: MTCKMSQLERNIETIINTFHQYSVKLGHPDTLNQGEFKELVRKDLQNFLKKENKNEKVIEHIMEDLDTNADKQLSFEEFIMLMARLTWASHEKMHEGDEGPGHHHKPGLGEGTP
As for B1, the binding result is “binds”.
